No constants are given. Whether binding was seen depends on the method and setting. In cells and extracts the contact can be indirect. Some entries that bind do so weakly or less than the wild type.
Legend:
Assay in all cases: co-IP; protein extracts of wild type S. pombe cells expressing chromosomally tagged proteins; 500 ug protein, IP with anti-MYC or anti-FLAG overnight at 4 C, protein A/G sepharose; lysis buffer PBS pH 7.0, 200 mM NaCl, 0.5 mM EGTA, 0.5 mM EDTA, 0.1% Triton X100; five washes at 220 mM NaCl; blots with anti-HA, anti-FLAG or anti-MYC
Ubp8 (S. pombe) = target: T1, Ubp8 (S. pombe) (UniProt Q09738)
T1 sequence: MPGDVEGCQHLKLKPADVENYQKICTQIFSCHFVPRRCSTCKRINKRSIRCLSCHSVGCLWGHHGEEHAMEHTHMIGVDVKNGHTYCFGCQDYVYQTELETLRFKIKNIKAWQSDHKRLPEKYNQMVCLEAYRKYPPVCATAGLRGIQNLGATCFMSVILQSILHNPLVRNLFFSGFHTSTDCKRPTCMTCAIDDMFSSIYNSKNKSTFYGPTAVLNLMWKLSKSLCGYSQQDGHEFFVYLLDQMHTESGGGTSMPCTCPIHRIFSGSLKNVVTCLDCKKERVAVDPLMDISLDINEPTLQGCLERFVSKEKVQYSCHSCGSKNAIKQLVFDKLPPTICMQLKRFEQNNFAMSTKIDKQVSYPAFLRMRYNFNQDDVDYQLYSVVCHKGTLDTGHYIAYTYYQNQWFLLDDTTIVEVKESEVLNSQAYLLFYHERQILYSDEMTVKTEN

Spt7 (S. pombe) = target: T2, Spt7 (S. pombe) (UniProt P87152)
T2 sequence: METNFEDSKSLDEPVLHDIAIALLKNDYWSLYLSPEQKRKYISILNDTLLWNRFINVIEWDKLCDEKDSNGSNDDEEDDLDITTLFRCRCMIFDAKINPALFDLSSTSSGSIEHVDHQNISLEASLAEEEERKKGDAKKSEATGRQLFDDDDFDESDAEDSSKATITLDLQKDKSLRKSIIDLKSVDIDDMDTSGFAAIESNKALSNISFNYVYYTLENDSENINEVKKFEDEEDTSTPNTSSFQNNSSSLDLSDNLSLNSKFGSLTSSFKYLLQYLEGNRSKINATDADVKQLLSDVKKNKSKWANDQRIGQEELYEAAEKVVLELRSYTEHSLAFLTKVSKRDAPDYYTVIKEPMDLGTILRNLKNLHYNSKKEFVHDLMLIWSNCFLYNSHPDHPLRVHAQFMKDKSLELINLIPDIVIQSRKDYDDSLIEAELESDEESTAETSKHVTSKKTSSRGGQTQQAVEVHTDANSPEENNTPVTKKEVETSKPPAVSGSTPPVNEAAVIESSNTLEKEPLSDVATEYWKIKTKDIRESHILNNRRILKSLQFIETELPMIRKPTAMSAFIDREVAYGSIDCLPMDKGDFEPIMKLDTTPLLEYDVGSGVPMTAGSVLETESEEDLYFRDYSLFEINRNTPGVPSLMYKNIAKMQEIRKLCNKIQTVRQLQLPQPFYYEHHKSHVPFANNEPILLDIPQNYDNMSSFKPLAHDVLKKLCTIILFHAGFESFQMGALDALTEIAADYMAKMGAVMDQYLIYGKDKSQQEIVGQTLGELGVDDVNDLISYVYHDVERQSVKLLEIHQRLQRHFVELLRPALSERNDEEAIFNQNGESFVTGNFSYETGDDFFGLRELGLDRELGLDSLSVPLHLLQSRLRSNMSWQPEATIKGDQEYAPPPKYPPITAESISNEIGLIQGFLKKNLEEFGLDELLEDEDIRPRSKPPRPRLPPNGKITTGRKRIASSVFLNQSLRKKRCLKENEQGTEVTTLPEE

Set1 (S. pombe) = target: T3, Set1 (S. pombe) (UniProt Q9Y7R4)
T3 sequence: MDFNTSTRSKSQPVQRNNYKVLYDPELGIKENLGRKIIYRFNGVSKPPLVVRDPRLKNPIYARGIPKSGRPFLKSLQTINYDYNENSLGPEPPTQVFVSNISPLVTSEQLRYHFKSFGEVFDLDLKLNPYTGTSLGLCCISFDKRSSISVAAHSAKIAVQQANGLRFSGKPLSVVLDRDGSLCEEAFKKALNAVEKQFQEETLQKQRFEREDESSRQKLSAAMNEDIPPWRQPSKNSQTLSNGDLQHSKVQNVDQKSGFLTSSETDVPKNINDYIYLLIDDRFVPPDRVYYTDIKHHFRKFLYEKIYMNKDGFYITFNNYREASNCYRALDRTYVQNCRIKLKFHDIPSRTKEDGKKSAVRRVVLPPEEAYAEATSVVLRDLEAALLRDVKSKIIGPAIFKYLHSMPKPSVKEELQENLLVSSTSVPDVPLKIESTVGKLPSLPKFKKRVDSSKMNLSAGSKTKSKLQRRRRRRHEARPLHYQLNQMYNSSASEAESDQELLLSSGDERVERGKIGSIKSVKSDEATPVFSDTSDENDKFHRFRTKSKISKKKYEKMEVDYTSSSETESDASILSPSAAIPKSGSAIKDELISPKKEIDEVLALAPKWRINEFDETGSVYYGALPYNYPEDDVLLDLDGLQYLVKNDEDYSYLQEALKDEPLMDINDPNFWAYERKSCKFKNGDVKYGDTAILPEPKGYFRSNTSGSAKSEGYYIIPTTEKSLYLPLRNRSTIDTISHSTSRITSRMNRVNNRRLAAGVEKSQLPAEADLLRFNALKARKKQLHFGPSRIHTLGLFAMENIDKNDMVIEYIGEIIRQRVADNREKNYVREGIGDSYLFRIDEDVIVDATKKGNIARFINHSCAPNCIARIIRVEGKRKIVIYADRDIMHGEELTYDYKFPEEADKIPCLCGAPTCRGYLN

B1: Gad8 (protein, UniProt Q9P7J8 1-569)
chain: MSWKLTKKLKETHLASAIGLNSGGSSFTRGLKNSTLSSTSSRKSSDEKSRKSSEDKRSPQSTVVQPGLLQVTIIEARNLKLPSGHVPANYGVSIDNSLLAPPLSNGSGHARSRSHAWWLPYIVVEFDKNEILVDALNTASLENPCWDYQATFDVSRYSKLSLNIYLRSSSSRSRNGMGNDAFLGGIKLSPSFIVNKLTDEWVPLHGGSGELRVQMLYKPNQSTPLTIDAFELLKVVGKGSFGKVMQVRKRDTSRIYALKTMKKAHIVSRSEVDHTLAERTVLAQVNNPFIVPLKFSFQSPGKLYLVLAFVNGGELFHHLQREGCFDTYRAKFYIAELLVALECLHEFNVIYRDLKPENILLDYTGHIALCDFGLCKLNMAKTDRTNTFCGTPEYLAPELLLGHGYTKVVDWWTLGVLLYEMITGLPPFYDENINEMYRKILQDPLRFPDNIDEKAKDLLSGLLTRAPEKRLGSGGAQEIKNHPFFDDIDWKKLCAKKIQPPFKPSVESAIDTSNFDSEFTSEIPMDSVVADSHLSETVQQRFANWSYQRPTTIDTSDDINTIAPGSVIR
binding (Ubp8 (S. pombe)): binds | binding (Spt7 (S. pombe)): binds | binding (Set1 (S. pombe)): no binding
